Among the data in PubChem BioAssay AID1347423 (Functional Genomics Laboratory (NCATS/FGL), 2020) are z-score values, retold here.

The whole screen tested about 52,000 sequences, of which about 210 (0.4%) were called active.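 How the source made its calls: active means gene whose silencing raises cell survival under the drug, median off-target-corrected z-score across its silencing RNAs 2 or more; inactive means the rest.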 This is one part of the list.

A short description of this test: Resistance to Poly (ADP-Ribose) Polymerase inhibitor: Gene Identification via Genome-wide siRNA Screen. The conditions noted are these: mouse BRCA2 R2336H ES cells, olaparib, CellTiter-Glo viability; stronger effect = higher value. The method, boiled down:
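Mouse BRCA2 R2336H ES cells were reverse-transfected with siRNA (20 nM final), treated at 48 h with 500 nM olaparib, and read by CellTiter-Glo after 72 h. Scores: MAD-based z per siRNA, median per gene, seed off-target correction.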
GGUUCCACUCAACUGAAGATT against Actl7b: the z-score was inactive: 2.26. The figure for GGAUGAGGAUGACUUUGAGTT against Tnk2 is inactive: -3.09; for CCUAUCUUCCUGAAUACAUTT against Aqp7 it is inactive: 0.231; for GGCUGCUCAAAAAGAACAUTT against Kif21b it is inactive: -1.16.

Consider GUGCUACUGCCUGCCAUUCTT against Sprrl5, for which the z-score was inactive: 0.157. Under GGUCAUCUCAGACCUCCUCTT against Pde6a stands inactive: 2.45.

Regarding “GGGCUUUAAGGAAAAGUUUTT against 2010110M21Rik”, the z-score was inactive: -0.358. As for CCCAAUACAUGAGCUUCUGTT against Ch25h, the z-score was inactive: 0.36. As to GGCUUUUCUAUGUUUGAGATT against Pde6d, the z-score is inactive: 0.751. The figure for GGCUCUGAACGUAUCCUACTT against Card10 is inactive: 0.747; for GGUGGCUAGUUUUAUUACUTT against Thtpa it is inactive: 0.685. Under GGGCUCCUGUCUAAAGGAATT against Cd200r2 stands inactive: -0.488. Regarding CCACUGCUUAAUCCUAUGATT against Olfr741, the z-score is inactive: -0.624. The figure for GCUCUCAUUAGCAUUAUCGTT against Gria1 is active: -0.366; for CCCUAGUUUAUCUCCGGAUTT against Lhx1 it is inactive: 1.44. As to “CUACCUACUCCAUGUGGUGTT against MGI:1915703”, the z-score was inactive: -0.426. Under GCUACAUUUCUACUCAAAGTT against Dkk2 stands inactive: 0.866; under “GCCCUAGUGAGAGGAAACCTT against 4930538K18Rik”, inactive: 0.45. Under GACCCUAGCUCACUUUGGUTT against LOC433873 stands inactive: 1.19; under GCUUGAGGAAUUUACGGCGTT against Cetn3, inactive: -0.0954. Under “CGAGAUUUAUAUGGUGUCUTT against 6530406M24Rik” stands inactive: -1.19. Take CUGGGUUACUUCACUAAGGTT against MGC117568: the z-score was inactive: 3.29. The figure for GGAAGGUGAAGCCAGUUUCTT against AI429613 is inactive: 0.205; for GCACUAAUCAAUAUCUAGGTT against Klf8 it is inactive: 0.674; for GCUAAUACGAUUUACUUUGTT against Cntn6 it is inactive: 0.131. The figure for “GCAGAUGAAUCCAUUCUGATT against 8430415E04Rik” is inactive: -0.588; for CGCACUGAGUCUGAAUAUGTT against Hibch it is inactive: -0.231; for GCUAAUAUUAGGCUACAUCTT against Evi2a it is inactive: -1.06. Turning to GGAUGCUAGACUAAUACUATT against Mftc, the z-score was inactive: -0.233.

“CCCUCUUAGUAACUGGCUCTT against D330022A01Rik”: the z-score was inactive: -0.836. For GGUGUUGUUUCGAAUUAUUTT against Xrn1, the z-score is inactive: -0.117. The figure for CGUGGACGGAAAUGUUAAUTT against Trpc3 is inactive: -0.403; for GGAAAAAAAAAUGUCCUUGTT against Rit2 it is inactive: 0.838; for GCUACGUUUACUGACCACATT against Bcat1 it is inactive: 1.07. Under CGGCUUCCCAAAAGAUGUGTT against Aire stands inactive: 0.465; under GGGAUAAGAGAGCAAUUAATT against Dub1, inactive: 0.859.

Regarding GGAGCUAUGGCUCAUACAUTT against Spire1, the z-score is inactive: -0.517. For GGGCACAUAUAAACUUAUUTT against Dnaic1, the z-score was inactive: 0.258. Under “CGUACUUGCCUAUGUAUAGTT against A830031A19Rik” stands inactive: -1.67; under GCGCAUACCUGUGUGUCAUTT against Tyk2, inactive: 1.26. Under GGUUUUUGUGUGGAUCUAUTT against Tloc1 stands inactive: -1.21; under CGGAUGAAAGUGUCUUGAUTT against Slbp, inactive: -0.41; under GGACCAGCUUUUUAAUGUUTT against Prpsap2, inactive: -0.13. Turning to GGAGCUGUUUCUGUUAUUGTT against F8a, the z-score is inactive: 1.64. Under GGAAGAACACAAAACUGACTT against Cdkn1b stands inactive: 0.326; under “CGUGAAUUAUGGAAAUUAGTT against A630033H20Rik”, inactive: -0.00288; under GCAUCUUAUUUAAUUCCCATT against Mrpl39, inactive: -0.94. Under CCUUUCAGCUUACAUUUAATT against Cyp4a12 stands inactive: 0.599; under GCUAUGUAUCCCACCAAAATT against Enpp3, inactive: -0.0183; under “GGUAACAAUCACCAUAUUCTT against 1700029F12Rik”, inactive: 0.224.

On to GCCACGGAGAUAGCAGUUUTT against Hmgcll1, for which the z-score was inactive: 0.422. The figure for CCGUGUGGAGGUACCCAUUTT against Zp3 is inactive: 2.34. Consider “CGAGAUGAAAUAUACAGAUTT against C030046M14Rik”, for which the z-score was inactive: 0.139. GGAUGAGGCCAUCCUCAAGTT against Rps6ka1: the z-score was inactive: 0.909.

On to GGAUCUGAAAUGAACCAGCTT against Rpl38, for which the z-score was inactive: -2.47.

In the case of GCUCAUAAGUUUCUAAGGATT against Rab22a, the z-score is inactive: -0.0876. Under CCUAACAACCGCUCUUGUGTT against Efemp2 stands inactive: -0.112; under GGCAACUCUCAAUUGCACATT against Olfr1325, inactive: 1.35; under “GGAGCAUCUAUGAUUACAATT against 2400003L07Rik”, inactive: -0.298. As for GCCAAGGAGAUCAUAAAAUTT against Klk14, the z-score was inactive: -0.541.

On to CCCUUCUGUCUGUCUGAAGTT against Olfr247, for which the z-score is inactive: -0.281. Under GCUUCAGGAGCUCUACUGUTT against Catsper3 stands inactive: 0.398; under GGGAUUUCCUUCAUCAUUATT against Gtf2i, inactive: 1.41.

GGAUAUAACUGCUAUGGUUTT against Rhebl1: the z-score is inactive: 1.21. As for GGCCGGAGCAUCACAAUUUTT against Vamp1, the z-score is inactive: -1.75.

Consider “GCUCCAACAAGGCAUAAAATT against 2810028N01Rik”, for which the z-score was inactive: -0.635. The figure for GGCUGUUUGGCUUGUUUAATT against Golga7 is inactive: -0.501. The figure for GCACUAGCACACACGAUUUTT against Upp1 is inactive: -0.804. Under CCCUUUAUGAUAGGUUUUATT against V1rj3 stands inactive: -0.676; under GGAAUGUUGACUUAAAGGATT against Crot, inactive: -0.838. On to GGACAAGACCAGCAAAUACTT against Six6, for which the z-score was inactive: -0.149. For the sequence GGAAGACUACGAUCAAUGGTT against Pafah2, the z-score is inactive: 1.1. For the sequence GGCUUUGUAUUUGUUUAUGTT against Gdap1, the z-score was inactive: 1.38. The figure for CCCGAAUUGACAACAUCGUTT against Olfr855 is inactive: -0.5. The figure for GGCACUGGAAAUAAAACCCTT against S100a14 is inactive: 0.348; for “GCGACGGCUUAUAUGGGUUTT against 4930504O13Rik” it is inactive: -0.144.

Take GGAAUAACUUUCCAUACCATT against BC011426: the z-score was inactive: -0.0291. The figure for CGCCAUGAAUGUGAUUGGATT against Myo1e is inactive: -0.718; for GGAUCAGAUAAAGCAAAUUTT against Eif3s9 it is inactive: -3.16. As for UAUGGGCCCUUGUCCUCUGTT against Gpr40, the z-score was inactive: -0.544. Under CCUCCAGGUGUUGAUCUGUTT against Btbd11 stands inactive: -0.0554. Under GGAGACUUGAAAACAAUUATT against Brd2 stands inactive: -0.82; under GGUCCUGGACAAAGUGUUUTT against Tubgcp5, inactive: 0.63; under GGUCAAAAUAGAAGGAGUATT against Klhl4, inactive: 2.64. The figure for GCUUCACGUUGGCUUUCCUTT against V2r1 is inactive: -0.183; for GCCAAGAAAGAUCAUUGACTT against Mlstd1 it is inactive: -0.494; for UUGAGAGGCAAAGAGUGGUTT against Olfr1166 it is inactive: 0.622. For the sequence CGAGCUGUUAGAAUUCAGATT against Gababrbp, the z-score was inactive: 0.354. With GGGUGAGCCUUCCUGAAAATT against Pcdhgb4, the z-score is inactive: -3.17. The figure for CCUACAAGACUGUCUCUGGTT against Atp6v1b2 is inactive: -2.46. As for “GGUCAUGAGUAUUUUGACUTT against 4930429H24Rik”, the z-score was inactive: 0.362.

Take “GGCAAUAUCCAGGAGACAGTT against 1810036H07Rik”: the z-score is inactive: 1.81. Consider GGCUGAGAAACUGGAUGAATT against Rem1, for which the z-score was inactive: -1.65. Under GGUUUUGAGCAUUAAUGUGTT against Dhrs4 stands inactive: -0.282. Consider GGCCUUUUCCAUAAACUUUTT against BC013672, for which the z-score is inactive: -0.0686. For the sequence CCCAGUCACAAUAUUUUCUTT against Ssbp1, the z-score is inactive: 0.538.

With GGAUGCUAUUUUUGAAACCTT against Wins2, the z-score is inactive: 0.815. Under GCCGACAUCUCCAAGAGAUTT against Cdk5rap3 stands inactive: -1.07; under CCACUCUCACCAGCUUUAUTT against Tm7sf2, inactive: -0.134; under GGAGUUGGAGGAAAGAAUUTT against Csh2, inactive: -0.327. GCCGGGCUCGCCCUGCUCCTT against MGC41689: the z-score was inactive: 0.858. The figure for GGAACCACUGCUAGCCAGATT against Serpinb6a is inactive: -1.9; for GCCCUGUUUAGAACCAUCATT against Gna14 it is inactive: -0.0577; for CCAAGUACUACAAUUUCCATT against Oasl2 it is inactive: 0.094.
